Results on 34 compounds are retold here after the supplement of paper PMC8256030.

Several values for one entry are separate records, joined by “and”; a condition that tells them apart may be missing. Equal values may be shown once. The list shows a part of the results. Repeats in this data set agree poorly, so a single value says little.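 HEK293T cells were given each compound shortly before transfection with a reporter in which red mCherry is followed by the SARS-CoV-2 frameshift element and then GFP in the −1 frame, so GFP appears only after frameshifting.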

The test system of assay [1] is SARS-CoV-2 -1 PRF reporter mCherry-FSE-GFP(-1). The experiment in a line: mCherry (red) intensity as percent of control; higher = higher upstream reporter expression. The following applies: 10 µM; 24 h; HEK293T.
For assay [2] the test system is unchanged. The experiment in a line: percent effect, decrease of GFP/mCherry ratio (-1 PRF reporter) relative to controls; higher = stronger frameshift inhibition. The following applies: 10 µM; 24 h; HEK293T.

In the case of `CN1C2CCCC1CC(NC(=O)c1nn(C)c3ccccc13)C2` (stereo not drawn) [granisetron], in assay [1], the mCherry came to 117%. Further, the percent effect in assay [2] stood at 1.85%.
The matching figures for `Clc1ccc(CSC(Cn2ccnc2)c2ccc(Cl)cc2Cl)cc1` (stereo not drawn) [sulconazole]: 109% and -1.11%.
The like results for `CC(=O)[C@@]12O[C@](C)(c3ccccc3)O[C@@H]1C[C@H]1[C@@H]3CCC4=CC(=O)CC[C@]4(C)[C@H]3CC[C@@]12C` were, in that order, 76.8% and -4.83%.
The like results for `NC(=O)C(c1ccccc1)(c1ccc(F)cc1)c1ccc(F)cc1` [senicapoc] were, in that order, 72.7% and -1.83%.
In assay [1], `O=C(OCCOCCO)c1ccccc1Nc1cccc(C(F)(F)F)c1` [etofenamate] yielded a mCherry of 93.7%. In addition, the percent effect in assay [2] was found to be 0.64%.
The like results for `CNC1CCCN(c2c(F)cc3c(=O)c(C(=O)O)cn(C4CC4)c3c2OC)C1` (stereo not drawn) [balofloxacin] were, in that order, 96.3% and -0.369%.
Consider `CC(C)(C)NCC(O)COc1cccc2c1C[C@H](O)[C@H](O)C2` (stereo partly drawn), for which the mCherry in assay [1] came out at 89%. Further, the percent effect in assay [2] was 1.03%.
The like results for `Cc1cc2nc3ccc(=[N+](C)C)cc-3sc2cc1N` [tolonium chloride] were, in that order, 18.6% and 7.91%.
The like results for `CC1=CC(=O)NS(=O)(=O)O1` [acesulfame] were, in that order, 107% and 0.167%.
The matching figures for `COc1cc(/C=C/C(=O)N2CCN(CC(=O)N3CCCC3)CC2)cc(OC)c1OC` [cinepazide]: 93.4% and -1.32%.
On to `CC#CCC(C)[C@H](O)/C=C/[C@@H]1[C@H]2C/C(=C/CCCC(=O)O)C[C@H]2C[C@H]1O` (stereo partly drawn) [iloprost], for which the mCherry in assay [1] turned out to be 82.4%. The percent effect in assay [2] is -13.3%.
The like results for `Nc1ncn([C@@H]2O[C@H](CO)[C@@H](O)[C@H]2O)c(=O)n1` [azacitidine] were, in that order, 14.5% and -11.6%.
The matching figures for `CC[C@H](C)[C@@H]1NC(=O)[C@H](Cc2ccc(OC)cc2)NC(=O)CCCSC[C@@H](C(=O)N2CCC[C@H]2C(=O)N[C@@H](CC(C)C)C(=O)NCC(N)=O)NC(=O)[C@H](CC(N)=O)NC(=O)[C@H](CCC(N)=O)NC1=O`: 121% and -1.7%.
The matching figures for `O=C1/C(=C/c2cccs2)CCC/C1=C\c1cccs1`: 109% and 1.3%.
For the compound `O=c1[nH]c(=O)n([C@H]2C[C@H](O)[C@@H](CO)O2)cc1Br` [broxuridine], the mCherry in assay [1] is 99.1%. Besides, the percent effect in assay [2] was -10%.
For `CC(C)c1c(C(=O)Nc2ccccc2)c(-c2ccccc2)c(-c2ccc(F)cc2)n1CC[C@@H](O)C[C@@H](O)CC(=O)O` [atorvastatin], the mCherry in assay [1] was 96% and 95.1%. In addition, the percent effect in assay [2] was -5.66% and -1.15%.
`CN(C)NC(=O)c1ccc(Cl)c(S(N)(=O)=O)c1` [alipamide] yielded a mCherry in assay [1] of 87.8%. The percent effect in assay [2] was -6.29%.
The matching figures for `OCc1ccccn1`: 119% and -0.744%.
The like results for `CN[C@@H]1[C@H](O)[C@H](NC)[C@H]2O[C@@]3(O)C(=O)C[C@@H](C)O[C@H]3O[C@@H]2[C@H]1O` [Spectinomycin·2HCl] were, in that order, 108% and 2.6%.
`CC(C)(Oc1ccc(C(=O)c2ccc(Cl)cc2)cc1)C(=O)O` yielded a mCherry in assay [1] of 85.7%. Further, in assay [2], the percent effect was -5.95%.
With `CC1=C(C/C=C(\C)CCC[C@H](C)CCC[C@H](C)CCCC(C)C)C(=O)c2ccccc2C1=O`, in assay [1], the mCherry turned out to be 83.3%. Also, the percent effect in assay [2] is -0.559%.
The like results for `CN(C)CCn1cnc2c1c(=O)n(C)c(=O)n2C` [dimethazan] were, in that order, 89.8% and -4.54%.
The compound `CCCCCNC(=O)c1coc([C@H]2[C@@H](Cc3ccccc3CCC(=O)O)[C@@H]3CC[C@H]2O3)n1` [ifetroban] displayed a mCherry in assay [1] of 83.1%. Further, in assay [2], the percent effect was -4.04%.
The matching figures for `CC(Oc1ccccc1)C(=O)N[C@@H]1C(=O)N2[C@@H]1SC(C)(C)[C@@H]2C(=O)O` (stereo partly drawn) [pheneticillin]: 58.9% and 1.64%.
The like results for `C[C@H]1O[C@@H](n2cc(F)c(=O)[nH]c2=O)[C@H](O)[C@@H]1O` [doxifluridine] were, in that order, 93.4% and 0.593%.
The matching figures for `CCCCC1=NC2(CCCC2)C(=O)N1Cc1ccc(-c2ccccc2-c2nnn[nH]2)cc1` [irbesartan]: 102% and 0.454%.
Consider `O=C(Nc1cccc2c(=O)cc(-c3nnn[nH]3)oc12)c1ccc(OCCCCc2ccccc2)cc1` [pranlukast], for which the mCherry in assay [1] amounted to 105%. Further, the percent effect in assay [2] was -1.79%.
On to `COc1cc(CNC(=O)CCCC/C=C/C(C)C)ccc1O` [capsaicin], for which, in assay [1], the mCherry was 96.1% and 76.5%. Besides, the percent effect in assay [2] was 1.81% and 13.7%.
In assay [1], `CC(C)(CO)CCCCCCC(C)(C)CO` [gemcadiol] registered a mCherry of 147%. The percent effect in assay [2] is -4.24%.
As to `CC(C[N+](C)(C)C)OC(N)=O` (stereo not drawn), the mCherry in assay [1] turned out to be 95.1%. Also, the percent effect in assay [2] stood at 2.95%.
The matching figures for `CC(=O)OCC(=O)[C@@]1(O)[C@@H](C)C[C@H]2[C@@H]3CCC4=CC(=O)C=C[C@]4(C)[C@@]3(F)[C@@H](O)C[C@@]21C`: 105% and -2.12%.
The matching figures for `NC(=O)CN1C(=O)COc2ccccc21` [paraxazone]: 94.8% and -3.41%.
The matching figures for `CCOc1nc2cccc(C(=O)O)c2n1Cc1ccc(-c2ccccc2-c2nn[nH]n2)cc1`: 85.3% and -4.13%.
For the compound `C[N+](C)(C)C[C@H](O)CC(=O)[O-]` [levocarnitine], the mCherry in assay [1] stood at 84.9%. Moreover, in assay [2], the percent effect was -1.78%.
